Results are given in words; binding and its absence hold for the method and conditions named. In cells and extracts the contact can be indirect. Binding calls can cover weak binding; strength is not graded here. Where a sequence is shown, tags or fusion partners need not be part of it.
T1: OCS-binding factor OBF1 fused to the N-terminal domain of firefly luciferase (maize) (UniProt P24068)
T1 sequence: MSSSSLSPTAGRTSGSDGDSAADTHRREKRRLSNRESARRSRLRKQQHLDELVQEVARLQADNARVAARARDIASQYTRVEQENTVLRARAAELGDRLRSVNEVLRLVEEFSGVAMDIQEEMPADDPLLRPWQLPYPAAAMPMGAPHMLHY


Tests used:
[1] = molecular target: T1, OCS-binding factor OBF1 fused to the N-terminal domain of firefly luciferase (maize); assay: split reporter; firefly luciferase complementation imaging; NLUC and CLUC fusions co-infiltrated by Agrobacterium GV3101 into N. benthamiana leaves, 48 h, abaxial epidermis coated with 1 mM luciferin, LUC signal imaged; three empty-vector control combinations on each leaf
[2] = molecular target: UNBRANCHED2 (UB2) fused to the N-terminal domain of firefly luciferase (maize (Zea mays L.)); assay: as above

binding [1]	binding [2]	Molecule
binds		OCS-binding factor OBF4 fused to the C-terminal domain of firefly luciferase (maize)
	binds weakly	OCS-binding factor OBF1 fused to the C-terminal domain of firefly luciferase (protein, UniProt P24068 1-151) MSSSSLSPTAGRTSGSDGDSAADTHRREKRRLSNRESARRSRLRKQQHLDELVQEVARLQADNARVAARARDIASQYTRVEQENTVLRARAAELGDRLRSVNEVLRLVEEFSGVAMDIQEEMPADDPLLRPWQLPYPAAAMPMGAPHMLHY

Reference: article PMC7202667, “UNBRANCHED3 Expression and Inflorescence Development is Mediated by UNBRANCHED2 and the Distal Enhancer, KRN4, in Maize”
